# Out of some 400,000 compounds screened, about 13,000 (3.2%) were called active. Inconclusive results, whose numbers are uncertain, are shown with a selection of clear calls. The call rests on the fitted dose curve; in most records, active means well fitted cell-killing curve with a large enough effect; inconclusive means small, poorly fitted or top-dose-only effect, or effect the other way; inactive means flat fitted curve, though single readings scatter. Potencies of inconclusive entries are doubtful fits and often do not repeat. More than one record can exist for a structure, and the calls need not agree.
# Assay: qHTS assay for MDR1-selective chemotherapeutics: Primary screen using the drug-selected MDR subline cells KB-V1; further: nearly all actives have a fitted effect of over 60% in size
# Settings: KB-V1 MDR cells viability, CellTiter-Glo, 72 h; activity change, negative = cytotoxicity: at 46.1 µM (top of the series)
# Procedure, shortened: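 Cytotoxicity toward P-gp-expressing KB-V1 cells was determined as loss of CellTiter-Glo luminescence after 72 h at 37 degrees C. Compounds were tested in quantitative HTS format across a concentration range, with curves fitted to normalized data.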
# On the % scale 0 is the no-effect control and ±100 the full control effect; potency means the concentration at half of the fitted maximal effect.
SMILES,"activity change, negative = cytotoxicity",Potency
CC1(c2nnnn2-c2ccc3c(c2)OCCO3)CCC(=O)N1C1CC1 (configuration not stated),inactive: 2.06%,–
CCCCN(C(=O)C1=CC=CN2CCS(=O)(=O)N=C12)c1ccccc1,inactive: 3.48%,–
COc1ccccc1-n1c(SCC(=O)Nc2ccccc2C)nc(O)cc1=O,inactive: -16.5%,–
CCOc1ccc(N2CC(C(=O)Nc3cccc(S(=O)(=O)N4CCCCC4)c3)CC2=O)cc1 (configuration not stated),–,"inconclusive: 29.1 µM [cytotoxic, single point]"
O=C(NCc1ccccn1)c1ccc(OC2CCN(Cc3ccccc3)CC2)cc1,–,"inconclusive: 6.51 µM [cytotoxic, partial curve]"
CCC(C)NC(=O)CNC(=S)N(Cc1ccccc1F)C1CCCCC1 (configuration not stated),–,"inconclusive: 8.2 µM [cytotoxic, partial curve]"
Cc1ccc(C)c(NC(=O)C(Sc2nc3ccc(C)cc3[nH]2)c2ccccc2)c1 (configuration not stated),inactive: -20.9%,–
CCOc1cc(C(=O)N2CCOCC2)ccc1OCc1ccccc1,–,"inconclusive: 20.6 µM [cytotoxic, partial curve, poor fit]"
O=C(NNC(=O)c1cc2ccccc2o1)c1ccc(F)cc1,–,"inconclusive: 23.1 µM [rising, single point]"
CC(C)CCN1CCN(Cc2nc(-c3ccc(F)cc3)cs2)CC1CCO (configuration not stated),–,"inconclusive: 32.6 µM [cytotoxic, partial curve, poor fit]"
COc1cc(OC)cc(C(=O)NC2CCN(CC(=O)Nc3cccc4ccccc34)CC2)c1,inactive: 17.5%,–
CC[C@H](C)C(=O)N[C@H]1CCCN1C(=O)/C=C/c1ccccc1,–,"inconclusive: 4.61 µM [rising, full curve, poor fit]"
COCCN(C(=O)CCC(=O)Nc1nccs1)C(C(=O)NCCC(C)C)c1ccc(F)cc1 (configuration not stated),–,"inconclusive: 29.1 µM [cytotoxic, single point]"
CC1CCN(C2=NC(=O)/C(=C/c3cn[nH]c3-c3ccccc3)S2)CC1,–,"inconclusive: 18.4 µM [cytotoxic, single point]"
Nc1cc(=O)[nH]c(SCCSc2ccccc2F)n1,–,"inconclusive: 0.0326 µM [cytotoxic, full curve, poor fit]"
CCc1ccc(NC(=O)C2(C)Cc3ccccc3C(=O)O2)cc1 (configuration not stated),–,"inconclusive: 18.4 µM [cytotoxic, partial curve]"
CCS(=O)(=O)Nc1ccc(-c2cc(-c3ccccc3)c3cc(C)ccc3n2)cc1,inactive: -6.28%,–
COCCCNC(=S)N1CCN(c2nc(-c3ccc(F)cc3)cs2)CC1,inactive: -8.83%,–
CC(C)(C)c1ccc(/C=N/OCC(=O)NCc2ccccc2)cc1,–,"inconclusive: 29.1 µM [cytotoxic, single point]"
COc1cc(CNc2ccc(C(=O)O)cc2)cc(Br)c1OCC(=O)NC(C)(C)C,–,"inconclusive: 20.6 µM [rising, single point]"
COc1cc(NC(=O)CSc2ccc(-c3sc(-c4ccccc4)nc3C)nn2)cc(OC)c1,–,"inconclusive: 20.6 µM [rising, partial curve, poor fit]"
COCCNC(=S)N/N=C/c1c2ccccc2cc2ccccc12,inactive: -20.9%,–
Cc1cc2c(cc1C)N[C@]1(C[C@H]3CCC(=O)N4CC[C@@H](C1)[C@@H]34)C(=Nc1ccccc1C)N2,inactive: -5.65%,–

SMILES,"activity change, negative = cytotoxicity",Potency
COC(=O)c1c(NC(=O)COc2ccc(OC)cc2)sc2c1CCC(C)C2 (configuration not stated),–,"inconclusive: 7.31 µM [cytotoxic, full curve, poor fit]"
O=C(Cn1nnc(-c2ccccc2)n1)Nc1cccc(S(=O)(=O)N2CCOCC2)c1,–,"inconclusive: 18.4 µM [cytotoxic, partial curve]"
C=C(C)C(=O)O[C@H]1C/C(C)=C\C(=O)/C=C(\C)[C@H](O)[C@@H]2OC(=O)C(=C)[C@@H]21,–,"inconclusive: 3.26 µM [cytotoxic, partial curve, poor fit]"
Cc1ccc2c(N)c(C(=O)N(c3ccccc3)c3ccccc3)sc2n1,–,"inconclusive: 25.9 µM [cytotoxic, single point]"
CCOc1cccc(-c2c(C(=O)N/N=C(\C)c3ccccn3)nnn2-c2nonc2N)c1,–,"inconclusive: 29.1 µM [cytotoxic, single point]"
COc1ccc2[nH]c(=O)c(CNc3ccc(C)cc3C)cc2c1,inactive: -16%,–
CCc1cc(C(=O)N2CCCC(CCC(=O)N3CCN(c4ccccn4)CC3)C2)no1 (configuration not stated),–,"inconclusive: 10.3 µM [cytotoxic, partial curve]"
CC1(C(=O)NS(=O)(=O)c2ccc(Cl)s2)CCN1C(=O)C1(c2ccccc2)CCCC1 (configuration not stated),inactive: 0.77%,–
CCCn1cc(S(=O)(=O)c2ccc(OC)cc2)c(=O)c2cc(F)c(N3CCCCCC3)cc21,–,"inconclusive: 29.1 µM [cytotoxic, single point]"
COc1ccc(CN2CCN(S(=O)(=O)c3ccccc3)CC2)c(OC)c1,–,active: 18.4 µM
O=C(CN(C(=O)c1nsc(Cl)c1Cl)c1cccc(F)c1)NC1CCCC1,–,"inconclusive: 7.31 µM [cytotoxic, partial curve]"
CCC(C)(C)NC(=O)C(c1ccc(F)cc1)N(Cc1cccs1)C(=O)c1cnccn1 (configuration not stated),–,"inconclusive: 11.6 µM [cytotoxic, partial curve]"
S=c1[nH]c2ccccc2n1CCc1ccncc1,–,"inconclusive: 29.1 µM [cytotoxic, single point]"
COC(=O)[C@]12CCCCC=C1N(CCc1ccc(OC)c(OC)c1)C(=O)[C@H](CC(=O)NCCc1ccccc1OC)C2,–,active: 16.4 µM
CC(=O)Nc1cccc(C(=O)N/N=C/c2c[nH]c3ccccc23)c1,inactive: 17.2%,–
CCOc1cc(/C=C2\COc3ccccc3C2=O)ccc1OCC(=O)N(C)C,–,"inconclusive: 14.6 µM [cytotoxic, partial curve]"
O=C(c1ccc([N+](=O)[O-])s1)N1CCN(c2ccccn2)CC1,–,"inconclusive: 18.4 µM [cytotoxic, single point]"
COC(=O)c1cccc(NC(=O)Nc2ccc(Cl)cc2)c1,–,"inconclusive: 16.4 µM [cytotoxic, single point]"
CCCN1C(=O)C2(c3ccccc31)c1c(oc3cc(C)c(C)cc3c1=O)C(=O)N2CCCOC (configuration not stated),inactive: -5.05%,–
O=C(NCCc1ccccc1)C1CCCN1S(=O)(=O)c1cccc2nsnc12 (configuration not stated),–,"inconclusive: 20.6 µM [cytotoxic, single point]"
COc1cccc(C(=O)NCC(c2ccc3c(c2)OCO3)N2CCN(c3ccc(F)cc3)CC2)c1 (configuration not stated),inactive: -1.05%,–
Cc1c(C(=O)NCc2cccs2)oc2ccc(S(=O)(=O)N3CCOCC3)cc12,–,"inconclusive: 2.59 µM [cytotoxic, full curve, poor fit]"
CCN(CC)C(=O)C1=C(C)N(Cc2ccc(OC)cc2)C(=O)C(CC(=O)NCc2ccco2)C1 (configuration not stated),–,"inconclusive: 29.1 µM [cytotoxic, single point]"

SMILES,"activity change, negative = cytotoxicity",Potency
CC1=C(C(=O)N2CCOCC2)CC(CC(=O)NCc2cccc3ccccc23)C(=O)N1CCC1=CCCCC1 (configuration not stated),inactive: -13.8%,–
Cc1ccc(-c2nc(CN3CCN(C(=O)C4CCCO4)CC3)cs2)cc1 (configuration not stated),–,"inconclusive: 29.1 µM [cytotoxic, single point]"
Cc1c(C(=O)NCc2ccc3c(c2)OCO3)sc2nc(-c3ccc(F)cc3)cn12,inactive: -0.903%,–
COc1ccc(C2=Nn3c(nnc3-c3ccccc3OC)SC2)cc1OC1CCOC1 (configuration not stated),–,active: 3.26 µM
COc1cc(C(=O)Nc2ccc(OCc3cc(=O)n4cccc(C)c4n3)cc2)cc(OC)c1OC,inactive: -3.17%,–
CC(OC(=O)CC1CCCC1)C(=O)Nc1ccc(Cl)cn1 (configuration not stated),inactive: 1.57%,–
OC(COCc1cccs1)CN1CCN(c2cccc(Cl)c2)CC1 (configuration not stated),–,"inconclusive: 20.6 µM [cytotoxic, single point]"
NC(Cc1ccc(C(F)(F)F)cc1)c1csc(Nc2cc(NCc3ccco3)ncn2)n1 (configuration not stated),inactive: -2.82%,–
O=C(Nc1ccc(C(=O)N2CCOCC2)cc1)Nc1ccc(Cl)cc1Cl,–,"inconclusive: 20.6 µM [rising, single point]"
CC(=O)Nc1cccc(NS(=O)(=O)c2ccc3c(c2)CCC(=O)N3)c1,inactive: 17.7%,–
CCn1nc(C(=O)Nc2nc3ccc(C)cc3s2)c2ccccc2c1=O,inactive: -15.9%,–
COc1ccc(C(=O)NCCS(=O)(=O)NCc2ccc3c(c2)OCO3)cc1,inactive: 18.8%,–
CN(Cc1cccs1)C(=O)/C=C/c1ccccc1[N+](=O)[O-],–,"inconclusive: 20.6 µM [cytotoxic, partial curve, poor fit]"
CCCCOc1ccc(CN2C(=O)C(=O)c3cc(C)ccc32)cc1OC,–,"inconclusive: 29.1 µM [cytotoxic, single point]"
Cc1ccc(C(=O)CCC(=O)N2CCN(c3ccccc3O)CC2)cc1,–,"inconclusive: 25.9 µM [cytotoxic, single point]"
CCN(CC)C(=O)c1sc2c(c1C)c(=O)n(CCc1ccccc1)c(=O)n2Cc1cccc(Cl)c1,–,"inconclusive: 20.6 µM [cytotoxic, single point]"
COc1ccc(C2=NN(C(=O)CSc3ncccn3)C(c3ccc(OC)cc3)C2)cc1 (configuration not stated),–,"inconclusive: 7.31 µM [cytotoxic, partial curve, poor fit]"
CCOC(=O)c1nnn(-c2nonc2N)c1CN(CC)CC,–,"inconclusive: 2.59 µM [rising, partial curve, poor fit]"
Cc1ccc(S(=O)(=O)N2C[C@H]3C(=O)C[C@@H](c4ccccc4F)N(S(=O)(=O)c4ccc(C)cc4)[C@H]3C[C@H]2c2ccccc2F)cc1,inactive: -1.55%,–
CS(=O)(=O)c1ccc(C(=O)OCc2nnc(-c3ccccc3)o2)cc1[N+](=O)[O-],–,"inconclusive: 18.4 µM [cytotoxic, partial curve, poor fit]"
COc1ccc(Cl)cc1NC(=O)C(C)N1CCN(c2ccccn2)CC1 (configuration not stated),inactive: -24.5%,–

# Quoted at random: 4 records from the list, in no set order.
SMILES,"activity change, negative = cytotoxicity",Potency
CCOC(=O)c1nnn(-c2nonc2N)c1CN(CC)CC,–,"inconclusive: 2.59 µM [rising, partial curve, poor fit]"
Cc1ccc(C(=O)CCC(=O)N2CCN(c3ccccc3O)CC2)cc1,–,"inconclusive: 25.9 µM [cytotoxic, single point]"
Cc1ccc(S(=O)(=O)N2C[C@H]3C(=O)C[C@@H](c4ccccc4F)N(S(=O)(=O)c4ccc(C)cc4)[C@H]3C[C@H]2c2ccccc2F)cc1,inactive: -1.55%,–
O=C(Nc1ccc(C(=O)N2CCOCC2)cc1)Nc1ccc(Cl)cc1Cl,–,"inconclusive: 20.6 µM [rising, single point]"
